PubChem BioAssay AID504786, Drosophila RNAi Screening Center | 2011

Purpose: 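Fly genes required for HIF-dependent transcription when hypoxia is mimicked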 (primary screen)
Cell system: Drosophila S2 cells with a stable HIF luciferase reporter
Reagents: long dsRNA against Drosophila genes, about 0.2 µg dsRNA per well of a 384-well plate
Duration: three days of knock-down, then 20 h of DFO before reading
Challenge: desferrioxamine (DFO) at 100 µM, an iron chelator that mimics hypoxia, for 20 h
Measured: 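HIF reporter luminescence in cells given 100 µM DFO for 20 h, using the mouse ldh-a hypoxia-response element, scored as per-plate z-scores; higher means greater loss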
Direction: z-score: higher = stronger loss of HIF reporter signal
The deposit covers about 21,000 reagents; below is a random part of those with a known target gene and a result. 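Primary screen; positive scores mean lost reporter signal, so the sign may be inverted from the usual convention.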

With knock-down of CG30043 (GeneID 246412) [DRSC06285], the screen gave z-score, replicate 1 = -0.5; z-score, replicate 2 = -0.3.
Silencing of CG31380 (GeneID 318701) [DRSC15688] resulted in: z-score, replicate 1 = -0.3; z-score, replicate 2 = -0.4.
CG34230 (GeneID 5740558) [DRSC05317] showed z-score, replicate 1 = -0.1; z-score, replicate 2 = 0.
san (GeneID 44724) [DRSC07695] showed z-score, replicate 1 = 0; z-score, replicate 2 = -0.3.
With knock-down of CG11523 (GeneID 40458) [DRSC11669] the results were z-score, replicate 1 = -0.4; z-score, replicate 2 = -0.6.
For Dis3 (GeneID 42900) [DRSC16034], the values are z-score, replicate 1 = 1.2; z-score, replicate 2 = 2.1.
CG7987 (GeneID 41768) [DRSC16357] gave z-score, replicate 1 = -0.2; z-score, replicate 2 = -0.5.
Against CG17999 (GeneID 37357) [DRSC04300] the deposit lists z-score, replicate 1 = -0.3; z-score, replicate 2 = -0.3.
Knock-down of CG1288 (GeneID 40865) [DRSC12538] gave: z-score, replicate 1 = -0.1; z-score, replicate 2 = -0.3.
Against Parp1 (GeneID 3355109) [DRSC07725], the entry reads z-score, replicate 1 = 0.3; z-score, replicate 2 = -0.2.
Silencing of Parp1 (GeneID 3355109) [DRSC07778] came out at: z-score, replicate 1 = -0.4; z-score, replicate 2 = -0.1.
With knock-down of Parp1 (GeneID 3355109) [DRSC07780], the record shows z-score, replicate 1 = -0.3; z-score, replicate 2 = -0.3.
Silencing of RluA-1 (GeneID 34438) [DRSC02240] resulted in: z-score, replicate 1 = -0.2; z-score, replicate 2 = -0.3.
Knock-down of RluA-1 (GeneID 34438) [DRSC03060] gave: z-score, replicate 1 = -0.3; z-score, replicate 2 = -0.6.
Pdfr (GeneID 31234) [DRSC18614] showed z-score, replicate 1 = 0.8; z-score, replicate 2 = -0.3.
CG8745 (GeneID 39530) [DRSC11033] showed z-score, replicate 1 = 1.8; z-score, replicate 2 = -0.4.
Knock-down of CG8745 (GeneID 39530) [DRSC11034] gave: z-score, replicate 1 = -0.1; z-score, replicate 2 = -0.2.
After knock-down of Cda4 (GeneID 33144) [DRSC20623], the record shows z-score, replicate 1 = -0.4; z-score, replicate 2 = 0.
Silencing of Cda4 (GeneID 33144) [DRSC20641] came out at: z-score, replicate 1 = -0.3; z-score, replicate 2 = 0.
With knock-down of Cda4 (GeneID 33144) [DRSC20642], the record shows z-score, replicate 1 = -0.3; z-score, replicate 2 = 0.
For CG7656 (GeneID 39691) [DRSC10900], the values are z-score, replicate 1 = -0.3; z-score, replicate 2 = -0.4.
For CenB1A (GeneID 42735) [DRSC16923], the values are z-score, replicate 1 = -0.4; z-score, replicate 2 = -0.8.
For galectin (GeneID 33162) [DRSC00305], the entry reads z-score, replicate 1 = -0.1; z-score, replicate 2 = 0.3.
Knock-down of ltl (GeneID 38845) [DRSC10206] came out at: z-score, replicate 1 = -0.2; z-score, replicate 2 = 0.3.
With knock-down of ltl (GeneID 38845) [DRSC10870], the screen gave z-score, replicate 1 = -0.2; z-score, replicate 2 = 0.5.
With knock-down of dtr (GeneID 318856) [DRSC01847], the record shows z-score, replicate 1 = 0.2; z-score, replicate 2 = -0.3.

Entries listed so far whose target name starts with R or r (2):
RluA-1 (GeneID 34438) [DRSC02240] → z-score, replicate 1 = -0.2; z-score, replicate 2 = -0.3
RluA-1 (GeneID 34438) [DRSC03060] → z-score, replicate 1 = -0.3; z-score, replicate 2 = -0.6

More entries follow:
CG13786 (GeneID 34006) [DRSC02289] gave z-score, replicate 1 = -0.3; z-score, replicate 2 = -0.3.
Silencing of CG3603 (GeneID 31289) [DRSC18317] came out at: z-score, replicate 1 = -0.1; z-score, replicate 2 = -0.4.
Against CG8229 (GeneID 35898) [DRSC07114], the entry reads z-score, replicate 1 = -0.2; z-score, replicate 2 = -0.6.
ninaE (GeneID 42367) [DRSC17014] scored z-score, replicate 1 = -1.1; z-score, replicate 2 = -1.
Ir94a (GeneID 318610) [DRSC13538] scored z-score, replicate 1 = -0.4; z-score, replicate 2 = 0.3.
PNKP (GeneID 40994) [DRSC16512] showed z-score, replicate 1 = -0.3; z-score, replicate 2 = 0.3.
Knock-down of CG9877 (GeneID 37666) [DRSC04587] came out at: z-score, replicate 1 = -0.2; z-score, replicate 2 = -0.6.
With knock-down of CG14636 (GeneID 40526) [DRSC12223], the screen gave z-score, replicate 1 = -0.3; z-score, replicate 2 = -0.1.
Against CG12692 (GeneID 31372) [DRSC17881], the entry reads z-score, replicate 1 = -0.3; z-score, replicate 2 = -0.3.
For CG34109 (GeneID 4379890) [DRSC02169], the values are z-score, replicate 1 = -0.2; z-score, replicate 2 = -0.1.
With knock-down of CG34109 (GeneID 4379890) [DRSC02224] the results were z-score, replicate 1 = -0.1; z-score, replicate 2 = 0.
Depletion of CG34109 (GeneID 4379890) [DRSC02225] came out at: z-score, replicate 1 = -0.2; z-score, replicate 2 = -0.7.
CG30447 (GeneID 246621) [DRSC05820] showed z-score, replicate 1 = 0.6; z-score, replicate 2 = -0.1.
Depletion of CG17292 (GeneID 34152) [DRSC02594] came out at: z-score, replicate 1 = 0; z-score, replicate 2 = 0.
Knock-down of Cpr47Ec (GeneID 36191) [DRSC07332] resulted in: z-score, replicate 1 = -0.2; z-score, replicate 2 = -0.2.
Against dpr10 (GeneID 39180) [DRSC09015] the deposit lists z-score, replicate 1 = -0.3; z-score, replicate 2 = -0.1.
For dpr10 (GeneID 39180) [DRSC09018] the deposit lists z-score, replicate 1 = 0; z-score, replicate 2 = -0.9.
For dpr10 (GeneID 39180) [DRSC10159], the entry reads z-score, replicate 1 = -0.2; z-score, replicate 2 = -0.2.
dpr10 (GeneID 39180) [DRSC10160] scored z-score, replicate 1 = -0.2; z-score, replicate 2 = -0.4.
CG34404 (GeneID 41873) [DRSC15335] scored z-score, replicate 1 = -0.2; z-score, replicate 2 = -0.2.
With knock-down of CG34404 (GeneID 41873) [DRSC15978] the results were z-score, replicate 1 = 0.1; z-score, replicate 2 = 0.
With knock-down of Cyp312a1 (GeneID 40005) [DRSC11128], the screen gave z-score, replicate 1 = -0.2; z-score, replicate 2 = -0.5.
After knock-down of CG17050 (retired record) (GeneID 36482) [DRSC06651], the screen gave z-score, replicate 1 = -0.4; z-score, replicate 2 = -0.6.
Depletion of tacc (GeneID 40589) [DRSC12019] resulted in: z-score, replicate 1 = 0; z-score, replicate 2 = 0.6.
Silencing of tacc (GeneID 40589) [DRSC12388] resulted in: z-score, replicate 1 = -0.3; z-score, replicate 2 = -0.3.
